{"source": "PubChem BioAssay AID624150 (Cancer Research UK Cambridge, 2012)", "test": "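Which chromatin factors steer differentiation of epidermal stem cells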 (primary screen)", "cells": "primary human epidermal keratinocytes", "knock-down reagent": "siRNA pool against human genes, 1-2 µM siRNA in 20 µl nucleofection", "timing": "72 h after transfection plus 48 h differentiation (about 5 days)", "conditions": "five arms for 48 h: vehicle, AG1478 10 µM, BMP2/7 200 ng/ml, both together, or 10% serum", "measurement": "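Transglutaminase 1 immunostaining divided by DNA staining in each well, background removed, then z-scored versus every test siRNA on that plate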", "direction": "z-score, vehicle: higher = more differentiation marker per cell", "note": "Shown is a random part of 331 reagents. 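Each arm had three replicate z-scores, but only the first replicate is printed; higher values mean more differentiation marker per cell.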 Further read-outs or replicates are left out here. No sequences are given here."}
{"Target gene": "MBD3", "z-score, vehicle": -0.327}
{"Target gene": "PHF21A", "z-score, vehicle": 2.15}
{"Target gene": "TERF2IP", "z-score, vehicle": 0.486}
{"Target gene": "PHF7", "z-score, vehicle": -0.595}
{"Target gene": "PHF8", "z-score, vehicle": -0.863}
{"Target gene": "PRDM2", "z-score, vehicle": -0.703}
{"Target gene": "KMT2D", "z-score, vehicle": -1.43}
{"Target gene": "MTA3", "z-score, vehicle": 0.837}
{"Target gene": "HDGFL1", "z-score, vehicle": 0.0527}
{"Target gene": "PHF19", "z-score, vehicle": -1.84}
{"Target gene": "GATAD2B", "z-score, vehicle": -1.1}
{"Target gene": "CDY1", "z-score, vehicle": 0.0473}

Sorted by “z-score, vehicle” (ascending): 2 of the entries above
{"Target gene": "PHF19", "z-score, vehicle": -1.84}
{"Target gene": "HDGFL1", "z-score, vehicle": 0.0527}
